The whole screen tested about 350,000 compounds, of which about 220 (0.063%) were called active. Inconclusive results, whose numbers are uncertain, are shown with a selection of clear calls. Calls come from the whole dose curve; as a rule, active = well fitted activation curve with a large enough effect; inconclusive = small, poorly fitted or top-dose-only effect; inactive = no such curve, though single readings can be large or run the other way. Where the call is inconclusive, the potency comes from a doubtful curve fit.
Assay: qHTS for Activators of Integrin-Mediated Alleviation for Muscular Dystrophy; note: nearly all actives have a fitted effect of over 60% in size;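 for activation: 100% = response of the positive control SU9516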
Settings: alpha7betagal myoblasts, beta-gal FDG fluorescence, 48 h; activation: at 38.3 µM (top of the series)
In short: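 Alpha7betagal+/- myoblasts (passage 13) were plated 16-24 hr, then exposed to compounds (1:260 dilution of DMSO stock) for 48 hours at 37C. After MPER lysis, β-galactosidase reporter activity was read as FDG fluorescence (ex 480/em 540) after 30 minutes.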
Potency is the fitted concentration of half-maximal effect.

Potency, inconclusive:
COc1ccccc1NC(=O)Nc1nc(CC(=O)NCc2ccccn2)cs1 7.94 µM [activator, partial curve, poor fit], Cc1ccc(N(C(=O)c2snc(C(N)=O)c2N)C(C(=O)NC2CCCC2)c2ccc(C)o2)cc1 (configuration not stated) 28.2 µM [activator, single point], CCOC(=O)c1cn2nc(N3CCCC3)ccc2n1 3.55 µM [activator, partial curve, poor fit], O=C(NCCc1ccccc1)c1cc(-c2ccncc2)nc2ccc(S(=O)(=O)N3CCOCC3)cc12 28.2 µM [activator, single point], CCCN1CCC(NC(=O)Cc2cccc(C)c2)CC1 5.01 µM [activator, single point], C=CCN(CC=C)C(=S)Nc1cc(Cl)ccc1OC 11.2 µM [activator, partial curve, poor fit], Cc1ccc(/C=N/NC(=O)c2nnn(-c3nonc3N)c2CSc2ccccc2)s1 5.01 µM [activator, single point], COCCNC(=S)NNc1cccc(C(=O)O)c1 2.24 µM [activator, single point], COc1ccc2oc(C(=O)Nc3nc(C)cs3)c(C)c2c1 3.55 µM [activator, single point], c1ccc(C(c2ccccc2)N2CCN(Cc3nc(-c4cnccn4)no3)CC2)cc1 5.01 µM [activator, partial curve, poor fit], CC(C)[C@H](NC(=O)c1ccccc1Cl)C(=O)OCC(=O)N1CCCCC1 10 µM [activator, partial curve, poor fit], O=C1CC(N2CCN(S(=O)(=O)c3ccccc3F)CC2)C(=O)N1c1ccccc1F (configuration not stated) 28.2 µM [activator, single point], O=C(COc1ccccc1Cl)Nc1ccc2c(c1)C(=O)NC2=O 11.2 µM [activator, single point], CCN(CC)S(=O)(=O)c1ccc(-c2nnc(SCC(=O)Nc3ccc4c(c3)OCO4)o2)cc1 5.01 µM [activator, single point], Cc1nc2cc(-c3ccccc3)nn2c(N)c1-c1ccccc1 2.82 µM [activator, partial curve, poor fit], CCCCN(C(=O)CSCc1ccc(C)cc1)c1c(N)n(Cc2ccccc2)c(=O)[nH]c1=O 0.398 µM [activator, partial curve, poor fit], Cn1c(N)c(C(=O)COC(=O)c2cccc(S(=O)(=O)N3CCOCC3)c2)c(=O)n(C)c1=O 28.2 µM [activator, single point], CCOc1ccc(N(CC(=O)N2CCN(c3ccc(F)cc3)CC2)S(=O)(=O)c2c(C)noc2C)cc1 2.82 µM [activator, single point], Cc1cc(OC(C)C(=O)NCc2ccncc2)c2c(C)cc(=O)oc2c1 (configuration not stated) 5.01 µM [activator, single point], O=C(c1ccc(F)cc1)n1c(NCc2ccccc2)n[nH]c1=S 11.2 µM [activator, partial curve, poor fit], Cc1cc(C)cc(NC(=O)CCCn2nc(C)c3c(C)n(-c4ccccc4)nc3c2=O)c1 11.2 µM [activator, single point], Cc1c(C)n(-c2ccc(Cl)cc2)c2ncnc(N)c12 12.6 µM [activator, single point], O=[N+]([O-])c1ccc2c(c1)nc1n2CCN(c2ccccc2)C1 28.2 µM [activator, single point], Cc1cc(C)cc(NC(=O)Nc2ccc3c(c2)CCC3)c1 2.82 µM [activator, single point], COc1ccc(-c2ccc(CCC(=O)O)n2NC(=O)c2cccs2)cc1 17.8 µM [activator, single point], CC(C)Nc1nnc(SC(C)C(=O)N(C)C2CCCCC2)s1 (configuration not stated) 28.2 µM [activator, single point], Cc1cccc(NC(=O)Nc2ccccc2[N+](=O)[O-])n1 0.316 µM [activator, partial curve, poor fit], CC(CC(=O)N1CCc2ccccc21)n1cccn1 (configuration not stated) 2.82 µM [activator, partial curve, poor fit], Cc1ccccc1C(=O)N1CCN(c2ccc(NC(=O)Cc3ccccc3)cc2)CC1 5.01 µM [activator, single point], C/C(=N\Nc1c(Cl)c(Cl)nc(C(=O)O)c1Cl)c1ccc(O)cc1 10 µM [activator, partial curve, poor fit], FC(F)(F)c1ccnc(NCc2ccc(Cl)cc2)n1 5.01 µM [activator, single point], Cc1ccc2nc3c(cc(S(=O)(=O)c4ccccc4)c(=N)n3Cc3ccco3)c(=O)n2c1 1 µM [activator, full curve, poor fit], Cc1ccc(NC(=O)CN2C(=O)NC(C)(c3ccc(Cl)cc3)C2=O)c(Br)c1 (configuration not stated) 1 µM [activator, full curve, poor fit], CCCN1CCC(NC(=O)Nc2ccc([N+](=O)[O-])cc2)CC1 3.55 µM [activator, single point], Cc1ccc2oc(-c3ccc(C)c(NC(=S)NC(=O)c4cccs4)c3)nc2c1 22.4 µM [activator, single point], COc1cc(Cl)ccc1OCc1cc(C(=O)N(C)C2CCOC2)no1 (configuration not stated) 0.501 µM [activator, full curve, poor fit], Cc1ccc(C(=O)NCC(=O)N2CCN(c3ccccc3)CC2)cc1 28.2 µM [activator, single point], O=C(COc1ccc2c(-c3ccccc3)cc(=O)oc2c1)NCCCN1CCOCC1 5.01 µM [activator, single point], COc1cc(OC)c(NC(=O)CCNS(=O)(=O)c2ccc3c(c2)oc(=O)n3C)cc1Cl 22.4 µM [activator, single point], COc1ccc([C@H]2CC(=O)C=C(c3ccc(C(=O)O)cc3)C2)cc1OC 5.01 µM [activator, single point], Cc1ccc(-c2csc(NC(=O)CCCc3cccs3)n2)cc1 2.82 µM [activator, single point], CN(C)CC/C=C1/c2ccccc2CS(=O)(=O)c2ccccc21 10 µM [activator, single point]

Potency, inactive:
O=C1NC[C@H](CC2CCCCC2)N(CC2CCCCC2)C1=O, CC(=O)Nc1ccc2c(=O)n(-c3ccccc3)sc2c1, O=C(Cc1ccc([N+](=O)[O-])cc1)NCC1CCCO1 (configuration not stated), CCOCCCNC(=O)C(c1ccc(Cl)cc1)N1CCN(c2ccccc2)CC1 (configuration not stated), CCCCCCCN(C(=O)CCl)c1cccc(C)c1, COc1cccc(NC(=S)N/N=C2\CC(C)(C)Oc3ccc(O)cc32)c1, O=C(O)CSCc1cn2cc(Cl)ccc2n1, Cc1ccc(N/N=C/C=C/c2ccco2)cc1, CCOC(=O)c1c(-c2cccs2)csc1NC(=O)CC(C)C, C[C@H]1CN([C@@H](C)CO)C(=O)CCCn2cc(nn2)CO[C@@H]1CN(C)C(=O)Nc1ccc(N2CCN(C)CC2)cc1, COc1nc(C)ccc1-c1noc(-c2cccs2)n1, CCOC(=O)/C(C#N)=C1/C=C(C)NC(c2ccccc2O)=N1, COc1ccc(OC)c(S(=O)(=O)ON2C(=O)c3ccccc3C2=O)c1, NC(=O)COC(=O)c1cc([N+](=O)[O-])ccc1NCCO, CN(CC(=O)Nc1ccccc1Cl)C(=O)COC(=O)c1nc(Cl)c(Cl)c(Cl)c1Cl, CCCn1c(Cc2ccccc2)n[nH]c1=S, CNC(=S)N/N=C1\CC(c2ccccc2)Oc2ccccc21 (configuration not stated), CC/C(=N\NC(=O)c1cc(C)nc2ccccc12)c1ccc(C)s1, O=c1[nH]c(CS(=O)(=O)c2ccccc2)nc2ccccc12, COC(=O)c1ccc(CSc2nnc(CS(=O)Cc3ccc(Br)cc3)n2-c2ccccc2)cc1 (configuration not stated), Cc1ccc(C(=O)N2CCN(c3ncccn3)CC2)cc1, CCOCCCN1C(=O)C(=O)N(CC(=O)N2c3ccccc3NC(=O)CC2C)C1=O (configuration not stated), COc1ccc(/C=C2\C(=O)N(c3c(Cl)cc(Cl)cc3Cl)N=C2NC(=O)c2cccc([N+](=O)[O-])c2)cc1, COc1ccc(CCNCC(O)COc2cccc(Br)c2)cc1 (configuration not stated), Cc1ccccc1NC(=O)CSc1nnc(-c2ccco2)c(-c2ccco2)n1, COc1ccccc1C1C2=C(CC(C)(C)CC2=O)Nc2nnnn21 (configuration not stated), COc1ccc(N/C=C2\CCc3ccccc3C2=O)cc1, Oc1c(C(Nc2ccccn2)c2cccnc2)cc(Cl)c2cccnc12 (configuration not stated), Cc1ccccc1CN1CCN(CC(=O)NCc2ccc3c(c2)OCO3)C1=O

activation, inconclusive:
O=C(O)c1ncc(Cl)c(Cl)c1Cl 93.7% [activator]
